Measurements as given in PubChem BioAssay AID1508600 (Functional Genomics Laboratory (NCATS/FGL), 2020).
Screen size: about 53,000 sequences; about 3,700 (7%) were called active.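 How the source made its calls: active means gene knockdowns whose robust z-score for IL-1 alpha signal is at least 2 or at most -2, so actives lie on both sides; inactive means the rest.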 The list shows a part of the results.

Experiment: Components of the Cytosolic LPS Sensing Pathway: Gene Identification via Genome-wide siRNA Screen;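 further: robust z of the log signal after scaling to non-targeting control siRNA wells of the plate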
Conditions: RAW264.7 macrophages, IL-1a HTRF, actives lie on both sides, screened at 100 nM (by protocol), cells primed 5 h with Pam3CSK4 first
Outline: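 Read-out: IL-1a HTRF on supernatant, divided by plate negative-control median ×100, log-transformed and converted to robust z-score. Cells were RAW264.7 given 100 nM siRNA, Pam3CSK4-primed 5 hours, then LipidA-transfected 24 hour.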

Row | Sequence | z-score
1 | GUACCUAGGCAUCAAUGUCTT against Trhr2 | inactive: -0.514
2 | GCAAUGUUCAAUAUCCAAGTT against Fut9 | inactive: 1.11
3 | CCCUCGACUUCUUACUGUCTT against Scyl2 | inactive: -0.369
4 | GCCAUCCGAUGCCUUAAUUTT against Mtap | inactive: -0.807
5 | GGAUCAUGAUUAGUUACAATT against Pdzrn3 | inactive: -1.05
6 | GGUCAUUCUAGUCCAGGAUTT against Pkd1l2 | inactive: -1.68
7 | GGUUCUCUGAAAUAAACUUTT against 9530002B09Rik | inactive: 0.888
8 | CCCUGACUAUACGUAUAACTT against Selplg | inactive: -1.52
9 | CGGUAUCUACAUCAUAAACTT against Rpsa | inactive: 0.172
10 | GGUGUACGUCCUACAAGGUTT against Pofut2 | inactive: 0.0999
11 | GGACUUGAGUCAGCUCAUCTT against Fastk | inactive: -1.38
12 | GCCGACAGUUAAGUUUCUCTT against Supt3 | inactive: -0.265
13 | CCCUCAACCUGCAUUUUAATT against Lgals2 | inactive: -0.861
14 | CGUGCUUUCAUGUUCCCUATT against Mfsd2a | inactive: 0.054
15 | GGAACAAAAAUGUUGACCATT against Trub1 | inactive: 1.26
16 | GCACCACACGGAUGAGUUUTT against Tgm1 | inactive: 1.33
17 | GCAGUGUGAACAAUUGAGATT against Mpl | inactive: -0.0939
18 | GGAUAUUCUUCCUCUCUUUTT against Pramel20 | inactive: -0.224
19 | GGCCAAAGAGGAGGAAAACTT against Ccdc92 | inactive: -0.428
20 | GGAGGUCGCUACCUUCUAUTT against Top1mt | inactive: -0.795
21 | CGAUGACGAAUACAACCGGTT against Nkx6-2 | inactive: -0.363
22 | ACAACUAUACUGGACAGUCTT against Olfr329 | inactive: 0.669

Row | Sequence | z-score
23 | GGAACCUUAAAGAUAGAUUTT against Npepps | inactive: 1.16
24 | GGAUUAAAAUACCUUCACGTT against Map3k5 | inactive: -0.568
25 | GCCGACGUAGUGACAUUCUTT against Crybb3 | inactive: 1.45
26 | GGACUGGUUCUUCAGAUCCTT against Depp1 | active: 3.31
27 | GCAGUACAAAACCAAGCGGTT against Slc1a1 | inactive: 1.56
28 | GGGUAGGUUAGGGAGUAAATT against Siah1a | inactive: -0.94
29 | GGUUCUUAGCCUUAACCAUTT against Ttc39b | inactive: 0.593
30 | GGAAAGAGAUACAGAAUCUTT against Brca2 | inactive: 0.302
31 | CCGGAUCCUGGUUAAAAGUTT against Fgd1 | inactive: -0.445
32 | GCUCCGUAAGAAGUCUCGUTT against Dhx16 | inactive: -0.676
33 | GCCACCAAACGAUGGUAUCTT against Ficd | inactive: 0.413
34 | UUAAGGUCACCUUCAAUGCTT against Cox11 | inactive: 0.349
35 | GGUUAGUUUGUUCAAAUCCTT against Slc6a3 | inactive: 1.31
36 | GGCAGCAGGAUGCAGAAAUTT against Ngef | active: -2.43
37 | GGUAUUUUGACCGAAUCAATT against Add3 | inactive: -0.294
38 | GGAGUCUUUAGUGACAUCCTT against AW549877 | inactive: -0.506
39 | CGGUCCCAAACGGUCAAGUTT against Tafa2 | inactive: 1.69
40 | GCCUUUUCAAAACACUUUCTT against Zfp935 | inactive: 0.249
41 | GCAAGUCUGCUAAAGGAUUTT against Taf5l | inactive: -1.86
42 | GGAGCUGAGAGUAAAUGAATT against Clcnkb | inactive: 0.357
43 | GGAGGUAUGGCGGUGAUUATT against Krt77 | inactive: 0.718
44 | GGUAUUGGAUCAUUUACAATT against Nae1 | inactive: -0.0968

Row | Sequence | z-score
45 | CCUAUCAUUCUCAAAGGGATT against Lrrn4cl | inactive: -0.507
46 | GGAACUCACUACAGUUUAGTT against Dhx35 | inactive: 0.785
47 | CGACUACCACACGUGGAAUTT against Hvcn1 | inactive: 1.36
48 | GGCUCUGUGGCACACUUAUTT against Olfr1211 | inactive: -1.41
49 | GGCAAAAGCAAGCUCACAGTT against Cdk16 | inactive: -1.18
50 | GGAUCAGCUUGUUCUCAGATT against Prl8a1 | inactive: -0.23
51 | GGCGAGGAGAACAUGCUGUTT against Nphp3 | inactive: 0.497
52 | GCUCAGACCACCUAAGAGUTT against Tmprss3 | inactive: 0.575
53 | GGAAAGGACUGUAGAGCGATT against Eml4 | inactive: -0.888
54 | CCUAUCUCACAUAGGUUUATT against Grb14 | inactive: 1.56
55 | GCAUGUGGAGAACGACUAUTT against Arhgap8 | inactive: -0.263
56 | GGAGAUCAACCACAAUGUUTT against Tekt1 | inactive: 1.01
57 | GGAUUGUGGGUUUAUAUAATT against Olfr835 | inactive: 0.274
58 | GCGACCGUAUUGUCACUUGTT against Arpc1a | inactive: -0.465
59 | GGGACAAUUCUGGAUUAAATT against 9330155M09Rik | inactive: -0.639
60 | GGGCCUUGAAUCUUUGUACTT against Galt | inactive: -0.284
61 | GCAGUACGCUGCAUUUAAATT against Mtrf1l | inactive: 0.551
62 | GCACAGUCCAUGAAUCAGATT against 4930432K21Rik | inactive: -0.639
63 | CCGGCUAUGAAGAUGAGUATT against Cox6a1 | active: 3.21
64 | GGAGGAGCUACUGAAAGAUTT against Wbp1l | inactive: -0.717
65 | GUGGUUUGCUACCCAGCAUTT against Ear6 | inactive: 0.281
66 | CGGAUGAAUUCCAGCUUCATT against Vdac1 | inactive: -1.35

Reformatted tab-delimited: part of the list above
Row	Sequence	z-score
3	CCCUCGACUUCUUACUGUCTT against Scyl2	inactive: -0.369
4	GCCAUCCGAUGCCUUAAUUTT against Mtap	inactive: -0.807

The results go on:

Row | Sequence | z-score
67 | CCAUCUCGCUACCAUGCAATT against Hmbox1 | inactive: -1.8
68 | GCUACUCAUGCUAGAUGACTT against Gba | inactive: -1.28
69 | GCCUGUGUGAUGCAACAGGTT against Ifna5 | inactive: -0.344
70 | GGAGAACUUCUUAUUCAGATT against Cfap161 | inactive: 0.494
71 | CGAACGUGAGCUACUGUGGTT against Cacnb4 | inactive: -1.19
72 | UUCUUGACAGCUGGAAGAGTT against Irgc1 | inactive: 0.12
73 | CCAUCUGGCACUUCAACAUTT against Csnk1g1 | inactive: -1.03
74 | GCCUCUGAACGGUUUGUAATT against Leo1 | inactive: 0.829
75 | GCUCUUAUGUUUAAUAUGGTT against Mrps2 | inactive: -0.483
76 | GGACGAUAGGACCCAAAGGTT against Sh3tc1 | inactive: 0.668
77 | GUCUUCCCUCAUCCUUUGATT against Cox8a | inactive: 0.902
78 | GGUUUUAGGAUCCUAGAAGTT against Ap1s1 | inactive: 0.957
79 | CCUAUAGCAAUGGCAGCAGTT against Pkn1 | inactive: -1.66
80 | GGUUUUGACAUCACAUUCUTT against Mtfr2 | inactive: 1.34
81 | UGAAUAAGGUGUGGUGCUCTT against Vmn1r148 | inactive: 0.607
82 | GGAUUUUCACCAACAGCCUTT against Gh | inactive: 0.046
83 | GGAUACACUGUUUGAAUGUTT against Cks1b | inactive: 0.00229
84 | GGAAAGAGGGAAACUAAUUTT against Abhd17a | inactive: -0.694
85 | CCGAGUGGUACUUCUGUAUTT against Ift172 | inactive: -0.646
86 | GGCAAGAAUGUUGUCCACCTT against Dnaja4 | inactive: 0.242
87 | GGAAGAUAGUGCGAUCCAATT against Adcy5 | inactive: -0.655
88 | CCUGUAAAGUCUAAAUAACTT against Tatdn1 | inactive: -0.581

Row | Sequence | z-score
89 | CCUCUGAGUGGAACACCUATT against Sfr1 | active: -3.54
90 | CCCACCAGUUGUCAUGAAUTT against Cnih3 | inactive: -0.513
91 | GGUUACUGCUCUCAUGUACTT against Olfr247 | inactive: -1.28
92 | CGGGCUCUUUGACAGUUCATT against Ppt2 | inactive: -1.73
93 | GCGGCCUCUUGAAUGAUUCTT against Ccndbp1 | active: 2.16
94 | GCGCAUCCAGUGGUCCUUUTT against Trpv5 | inactive: 0.353
95 | GGAUAUUGAUUGCUUUGUUTT against Uox | inactive: 1.41
96 | CCUACUCUUUUCAUUGACCTT against Cxcr1 | inactive: 0.108
97 | GGAAGUCAUUAUGUGAUCCTT against Nfyb | inactive: -0.404
98 | GGCCACGGACAUUUGCAUGTT against Plekhf1 | inactive: 0.348
99 | GGCUUUAUCAGAUCCAACCTT against Tmem108 | active: 2.47
100 | GGACAGAGGCGAUAGAAUCTT against Pou6f1 | inactive: -0.575
101 | GGCAAAAACAUGAUUCUCUTT against Hjv | inactive: -0.272
102 | GGCUUUGAGCCUUAGCCUATT against Gm14461 | inactive: -0.516
103 | CCUGGUCAUUAGGCUAGGATT against Tymp | inactive: -0.453
104 | GGAAGCUUCUGAGAGUAAATT against 4930503E14Rik | inactive: 0.13
105 | CAUCAUUGAACAACUUGACTT against Olfr1466 | inactive: 0.138
106 | GGGUCAAGCAGUGUAAAGATT against Dnajb12 | inactive: -0.529
107 | GGAAAUAGACACCAAGAGCTT against Mau2 | inactive: -1.64

Entries 99 to 100, quoted:
Row | Sequence | z-score
99 | GGCUUUAUCAGAUCCAACCTT against Tmem108 | active: 2.47
100 | GGACAGAGGCGAUAGAAUCTT against Pou6f1 | inactive: -0.575
